Measured values published in PubChem BioAssay (Tox21).
Inconclusive means that the source gave no clear call. Such entries were picked first, then a sample of the others. Potencies beside an inconclusive call are fits to weak or partial responses and may not hold up. A structure can be active in one record and inactive in another. Activity calls are given as the source filed them. Calls follow the shape of the full dose curve.
% is scaled to controls: 0 for no effect and ±100 for the full control effect; potency is read from the fitted curve at half-maximal effect.

Assay: p53 small molecule agonists, cell-based qHTS assay with rat liver microsomes: qHTS cell viability counter screen (AID 1963580); also: nearly all actives have a fitted effect of over 45% in size
Conditions: p53RE-bla HCT-116 + rat microsomes, ATP viability, 16 h; series mostly up to 66 µM; activity change, negative = cytotoxicity: at the top concentration
In short: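 HCT-116 p53RE-bla, 4,000 cells/well, 5 h pre-incubation; cpd + rat liver microsomes 0.5 mg/mL + NADPH 0.5 mg/mL (final); 16 h, 37 C; CellTiter-Glo, 30 min RT; luminescence.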
In the case of Clc1ccc(Cl)c(Cl)c1, the Potency is reported as inconclusive: 50 µM [cytotoxic, single point]. With C/C(=C\c1ccccc1)[N+](=O)[O-] the Potency was active: 36.3 µM. In the case of BrCCBr, the Potency is reported as inconclusive: 20.7 µM [rising, single point]. With Cc1ccc([N+](=O)[O-])cc1 the Potency was “inactive”. With CC(C)c1ccc(CO)cc1 the Potency was inconclusive: 0.458 µM [cytotoxic, single point]. For CC(C)c1cccc(C(C)C)c1O, the Potency was inconclusive: 45.6 µM [cytotoxic, single point]. In the case of Cc1[nH]c(=O)n(C(C)(C)C)c(=O)c1Cl, the Potency is reported as inconclusive: 1.84 µM [cytotoxic, single point]. With CCC[N+](CCC)(CCC)CCC the Potency was inconclusive: 45.8 µM [rising, partial curve]. In the case of CON(C)C(=O)Nc1ccc(Br)cc1, the Potency is reported as inconclusive: 51.3 µM [rising, single point]. With O=C(NCc1cccnc1)Nc1ccc([N+](=O)[O-])cc1 the “activity change, negative = cytotoxicity” value was inactive: -0.662%. With COC(=O)c1ccccc1S(=O)(=O)NC(=O)N(C)c1nc(C)nc(OC)n1 the Potency was inconclusive: 1.98 µM [cytotoxic, single point]. In the case of CCCCn1cc[n+](C)c1.[Cl][Fe-]([Cl])([Cl])[Cl], the Potency is reported as inconclusive: 1.82 µM [cytotoxic, single point]. In the case of O=C(O)CF, the Potency is reported as “inactive”. With CC(C)CC(C)N (centres undefined) the “activity change, negative = cytotoxicity” value was inactive: 0.76%. In the case of CC(=O)[O-].CC(=O)[O-].CC(=O)[O-].[Cr+3], the Potency is reported as inconclusive: 1.44 µM [cytotoxic, partial curve]. For CC(C)(COCC1CO1)COCC1CO1 (centres undefined), the Potency was inconclusive: 0.646 µM [cytotoxic, partial curve, poor fit]. With O.O.O.O.O.O.O.O=S(=O)([O-])[O-].[Co+2] the “activity change, negative = cytotoxicity” value was inactive: -5.85%. With CC(C)(Cl)Cl the Potency was inconclusive: 10.4 µM [cytotoxic, single point]. With O.O.O.O.O.O.O=S(=O)([O-])[O-].[Ni+2] the Potency was inconclusive: 0.874 µM [cytotoxic, single point]. With COP(=S)(Oc1cc(Cl)c(Br)cc1Cl)c1ccccc1 (centres undefined) the Potency was inconclusive: 51.3 µM [cytotoxic, single point]. In the case of CCCCC(CC)C(=O)Cl (centres undefined), the Potency is reported as inconclusive: 0.585 µM [cytotoxic, full curve, poor fit]. For O=[N+]([O-])O, the Potency was inconclusive: 1.82 µM [cytotoxic, single point]. With CC(C)C#N the Potency was “inactive”. For CN(N=O)c1ccccc1, the Potency was inconclusive: 1.68 µM [cytotoxic, single point]. With CCc1cnc(C2=NC(C)(C(C)C)C(=O)N2)c(C(=O)O)c1 (centres undefined) the Potency was inconclusive: 0.396 µM [cytotoxic, single point]. In the case of OCC1CO1 (centres undefined), the Potency is reported as active: 41.5 µM. With CC[N+](=O)[O-] the Potency was inconclusive: 46.7 µM [cytotoxic, single point]. With CCc1cccc(CC)c1N(COC)C(=O)CCl the Potency was inconclusive: 1.76 µM [cytotoxic, single point]. In the case of C1CCC(C2CCCCC2)CC1, the Potency is reported as inconclusive: 51.3 µM [rising, single point]. In the case of CCC(C)(CC)c1cc(NC(=O)c2c(OC)cccc2OC)on1, the Potency is reported as inconclusive: 0.916 µM [cytotoxic, single point]. For CCCC[P+](CC)(CCCC)CCCC (tested in a mixture with another compound), the “activity change, negative = cytotoxicity” value was inactive: 0.826%. In the case of [O-][Cl+2]([O-])O, the Potency is reported as “inactive”. With O=C(CBr)c1ccccc1 the “activity change, negative = cytotoxicity” value was inactive: -11.4%. In the case of ClP(Cl)(Cl)(Cl)Cl, the Potency is reported as inconclusive: 2.06 µM [cytotoxic, partial curve, poor fit]. For Cc1ncc(C[n+]2csc(CCO)c2C)c(N)n1, the Potency was inconclusive: 18.2 µM [rising, single point]. With ClCCBr the Potency was inconclusive: 1.82 µM [cytotoxic, single point]. With N#CC(Cl)(Cl)Cl the “activity change, negative = cytotoxicity” value was inactive: 2.03%. For Cc1cccc(N)c1C, the Potency was “inactive”. With CN1C(=O)COc2c(C(=O)NC3CN4CCC3CC4)cc(Cl)cc21 (centres undefined) the “activity change, negative = cytotoxicity” value was inactive: -4.86% [at 30.3 µM].
